Reference: publication PMC7954791, “MAGIs regulate aPKC to enable balanced distribution of intercellular tension for epithelial sheet homeostasis” (Communications Biology, 2021)
No constants are given. Whether binding was seen depends on the method and setting. In cells and extracts the contact can be indirect. Some results given as binding are weak or reduced against the parent protein; the word gives no strength. For part of these data: Sequences can lack the tags named with a protein.

Amino acid sequences for entries named in this document (tags omitted).
UniProt P39447: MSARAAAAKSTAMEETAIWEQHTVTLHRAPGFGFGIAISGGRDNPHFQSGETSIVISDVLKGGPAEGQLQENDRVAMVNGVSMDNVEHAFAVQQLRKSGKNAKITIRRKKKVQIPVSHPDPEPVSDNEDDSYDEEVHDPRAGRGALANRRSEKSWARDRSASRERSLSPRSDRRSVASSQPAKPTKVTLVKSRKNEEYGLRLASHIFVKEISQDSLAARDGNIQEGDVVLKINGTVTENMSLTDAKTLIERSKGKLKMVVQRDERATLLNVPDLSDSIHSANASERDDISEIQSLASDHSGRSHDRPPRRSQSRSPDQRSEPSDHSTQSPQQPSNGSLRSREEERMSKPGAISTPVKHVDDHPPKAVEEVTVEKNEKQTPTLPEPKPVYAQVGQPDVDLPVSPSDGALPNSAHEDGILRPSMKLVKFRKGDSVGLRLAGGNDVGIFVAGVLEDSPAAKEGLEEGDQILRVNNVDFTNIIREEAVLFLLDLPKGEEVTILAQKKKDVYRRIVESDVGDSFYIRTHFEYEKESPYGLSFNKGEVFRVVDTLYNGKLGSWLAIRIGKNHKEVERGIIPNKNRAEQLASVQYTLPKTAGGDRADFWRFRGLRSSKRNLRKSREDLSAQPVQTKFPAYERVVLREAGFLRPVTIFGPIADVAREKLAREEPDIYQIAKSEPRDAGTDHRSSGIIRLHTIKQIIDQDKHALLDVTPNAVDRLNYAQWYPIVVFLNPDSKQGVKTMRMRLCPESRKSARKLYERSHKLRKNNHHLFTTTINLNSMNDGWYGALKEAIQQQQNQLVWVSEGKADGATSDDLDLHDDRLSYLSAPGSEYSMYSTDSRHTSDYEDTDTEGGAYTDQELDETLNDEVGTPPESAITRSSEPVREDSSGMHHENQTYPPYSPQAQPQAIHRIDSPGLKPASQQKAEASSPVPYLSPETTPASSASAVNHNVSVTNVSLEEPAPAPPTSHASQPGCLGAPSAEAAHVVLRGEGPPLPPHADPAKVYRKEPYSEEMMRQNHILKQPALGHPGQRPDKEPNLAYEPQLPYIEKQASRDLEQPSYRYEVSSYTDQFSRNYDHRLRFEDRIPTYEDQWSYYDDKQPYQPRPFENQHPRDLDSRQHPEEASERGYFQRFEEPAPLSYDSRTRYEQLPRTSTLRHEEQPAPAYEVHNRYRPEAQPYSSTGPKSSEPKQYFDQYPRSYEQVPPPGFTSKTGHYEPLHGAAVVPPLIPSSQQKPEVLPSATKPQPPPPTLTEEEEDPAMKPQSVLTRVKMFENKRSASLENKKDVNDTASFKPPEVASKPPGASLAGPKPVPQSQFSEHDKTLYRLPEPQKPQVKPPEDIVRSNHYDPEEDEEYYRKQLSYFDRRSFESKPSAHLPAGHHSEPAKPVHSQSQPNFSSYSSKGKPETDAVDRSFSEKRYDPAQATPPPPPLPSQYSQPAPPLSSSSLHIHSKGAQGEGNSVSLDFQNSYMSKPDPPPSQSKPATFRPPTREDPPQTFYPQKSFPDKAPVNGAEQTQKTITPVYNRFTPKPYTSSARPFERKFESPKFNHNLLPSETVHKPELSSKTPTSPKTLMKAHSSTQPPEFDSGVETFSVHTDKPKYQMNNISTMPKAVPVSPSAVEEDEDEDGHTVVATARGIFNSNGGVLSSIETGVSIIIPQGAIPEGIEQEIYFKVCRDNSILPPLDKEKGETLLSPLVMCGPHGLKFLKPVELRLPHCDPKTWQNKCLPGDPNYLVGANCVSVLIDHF
UniProt Q9QZQ1: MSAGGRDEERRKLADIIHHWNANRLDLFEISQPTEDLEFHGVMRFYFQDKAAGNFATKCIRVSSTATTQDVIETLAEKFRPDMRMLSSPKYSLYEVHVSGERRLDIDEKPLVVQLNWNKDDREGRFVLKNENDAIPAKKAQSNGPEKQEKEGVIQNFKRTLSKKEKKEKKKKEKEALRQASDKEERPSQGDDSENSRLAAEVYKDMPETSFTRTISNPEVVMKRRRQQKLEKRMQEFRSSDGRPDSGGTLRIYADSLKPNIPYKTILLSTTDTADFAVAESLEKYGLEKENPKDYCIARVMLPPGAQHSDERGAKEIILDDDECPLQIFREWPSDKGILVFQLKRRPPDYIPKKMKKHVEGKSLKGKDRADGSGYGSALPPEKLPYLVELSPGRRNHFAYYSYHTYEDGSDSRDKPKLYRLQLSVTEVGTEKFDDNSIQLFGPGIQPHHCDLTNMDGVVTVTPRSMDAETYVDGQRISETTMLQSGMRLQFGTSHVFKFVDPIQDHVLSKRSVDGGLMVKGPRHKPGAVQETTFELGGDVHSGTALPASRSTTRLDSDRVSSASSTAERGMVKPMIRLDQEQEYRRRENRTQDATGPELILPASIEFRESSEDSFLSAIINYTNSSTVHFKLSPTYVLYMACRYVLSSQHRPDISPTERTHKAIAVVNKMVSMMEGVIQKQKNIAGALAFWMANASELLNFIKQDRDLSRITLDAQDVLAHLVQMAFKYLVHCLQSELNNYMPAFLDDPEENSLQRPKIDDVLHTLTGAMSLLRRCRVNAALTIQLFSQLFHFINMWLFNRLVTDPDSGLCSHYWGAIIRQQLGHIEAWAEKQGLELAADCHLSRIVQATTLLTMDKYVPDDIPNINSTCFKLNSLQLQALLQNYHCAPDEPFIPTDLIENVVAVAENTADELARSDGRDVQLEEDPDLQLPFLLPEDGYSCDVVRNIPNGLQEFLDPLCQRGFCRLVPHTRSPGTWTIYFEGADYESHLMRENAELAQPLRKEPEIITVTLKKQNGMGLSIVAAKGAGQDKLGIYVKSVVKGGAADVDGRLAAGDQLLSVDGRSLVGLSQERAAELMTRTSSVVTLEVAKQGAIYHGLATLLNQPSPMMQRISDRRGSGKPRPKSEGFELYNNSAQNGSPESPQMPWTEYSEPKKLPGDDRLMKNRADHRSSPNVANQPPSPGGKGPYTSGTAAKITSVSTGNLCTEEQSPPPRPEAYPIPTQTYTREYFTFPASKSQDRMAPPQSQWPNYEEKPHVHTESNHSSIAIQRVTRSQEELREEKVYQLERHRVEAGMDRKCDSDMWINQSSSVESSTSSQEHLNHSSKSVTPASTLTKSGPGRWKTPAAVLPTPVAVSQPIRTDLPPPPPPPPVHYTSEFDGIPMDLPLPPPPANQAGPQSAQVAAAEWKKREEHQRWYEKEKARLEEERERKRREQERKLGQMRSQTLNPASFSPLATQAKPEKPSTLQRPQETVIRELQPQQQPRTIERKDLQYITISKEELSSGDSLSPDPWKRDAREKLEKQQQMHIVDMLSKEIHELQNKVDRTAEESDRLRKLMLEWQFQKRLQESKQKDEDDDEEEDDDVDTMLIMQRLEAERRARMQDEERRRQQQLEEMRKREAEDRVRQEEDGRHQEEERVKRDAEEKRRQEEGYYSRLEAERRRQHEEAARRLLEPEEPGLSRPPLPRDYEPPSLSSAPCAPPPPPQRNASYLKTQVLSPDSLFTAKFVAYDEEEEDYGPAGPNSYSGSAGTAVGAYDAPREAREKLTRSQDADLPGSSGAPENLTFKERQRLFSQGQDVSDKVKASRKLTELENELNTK
UniProt Q6RHR9: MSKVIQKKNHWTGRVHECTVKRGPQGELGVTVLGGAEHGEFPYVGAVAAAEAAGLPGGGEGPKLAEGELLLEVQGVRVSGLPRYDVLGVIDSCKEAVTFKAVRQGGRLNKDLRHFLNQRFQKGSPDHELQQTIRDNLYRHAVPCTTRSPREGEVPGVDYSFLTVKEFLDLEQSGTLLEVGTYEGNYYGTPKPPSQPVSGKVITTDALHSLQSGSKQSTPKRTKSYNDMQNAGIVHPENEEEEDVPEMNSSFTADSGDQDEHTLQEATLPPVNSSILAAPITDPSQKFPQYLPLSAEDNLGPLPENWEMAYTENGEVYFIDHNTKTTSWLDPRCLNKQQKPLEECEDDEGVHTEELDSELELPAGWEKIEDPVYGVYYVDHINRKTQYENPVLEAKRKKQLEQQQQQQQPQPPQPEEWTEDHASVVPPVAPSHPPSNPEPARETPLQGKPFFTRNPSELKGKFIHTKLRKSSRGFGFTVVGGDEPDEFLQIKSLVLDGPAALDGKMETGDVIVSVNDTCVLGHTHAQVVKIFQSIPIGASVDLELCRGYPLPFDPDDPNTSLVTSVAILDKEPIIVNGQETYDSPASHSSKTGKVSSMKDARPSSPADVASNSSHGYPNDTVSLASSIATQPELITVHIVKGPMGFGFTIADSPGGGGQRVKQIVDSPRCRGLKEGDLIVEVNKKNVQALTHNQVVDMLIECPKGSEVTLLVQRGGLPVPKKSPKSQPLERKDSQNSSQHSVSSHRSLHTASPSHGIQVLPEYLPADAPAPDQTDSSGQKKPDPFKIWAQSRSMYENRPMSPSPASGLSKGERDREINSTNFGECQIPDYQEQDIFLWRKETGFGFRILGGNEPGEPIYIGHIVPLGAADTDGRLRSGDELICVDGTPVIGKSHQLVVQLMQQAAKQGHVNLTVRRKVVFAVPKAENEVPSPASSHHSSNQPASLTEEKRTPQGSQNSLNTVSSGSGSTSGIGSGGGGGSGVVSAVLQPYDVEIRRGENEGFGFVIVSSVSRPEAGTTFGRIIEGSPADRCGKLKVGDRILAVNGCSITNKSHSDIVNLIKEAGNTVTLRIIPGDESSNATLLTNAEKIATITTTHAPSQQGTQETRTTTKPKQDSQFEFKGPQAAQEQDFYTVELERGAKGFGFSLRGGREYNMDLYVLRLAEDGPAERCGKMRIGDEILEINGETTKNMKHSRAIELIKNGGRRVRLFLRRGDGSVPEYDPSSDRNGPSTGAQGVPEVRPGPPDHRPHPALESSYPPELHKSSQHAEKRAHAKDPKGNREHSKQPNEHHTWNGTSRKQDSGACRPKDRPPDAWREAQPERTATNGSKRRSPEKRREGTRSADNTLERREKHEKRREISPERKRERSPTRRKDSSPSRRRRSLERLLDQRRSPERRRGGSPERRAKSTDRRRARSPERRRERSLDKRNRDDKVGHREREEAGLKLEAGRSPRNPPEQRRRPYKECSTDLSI

T1: FLAG-tagged RASSF10 stably expressed in EpH4 cells (UniProt Q8BL43)
T1 sequence: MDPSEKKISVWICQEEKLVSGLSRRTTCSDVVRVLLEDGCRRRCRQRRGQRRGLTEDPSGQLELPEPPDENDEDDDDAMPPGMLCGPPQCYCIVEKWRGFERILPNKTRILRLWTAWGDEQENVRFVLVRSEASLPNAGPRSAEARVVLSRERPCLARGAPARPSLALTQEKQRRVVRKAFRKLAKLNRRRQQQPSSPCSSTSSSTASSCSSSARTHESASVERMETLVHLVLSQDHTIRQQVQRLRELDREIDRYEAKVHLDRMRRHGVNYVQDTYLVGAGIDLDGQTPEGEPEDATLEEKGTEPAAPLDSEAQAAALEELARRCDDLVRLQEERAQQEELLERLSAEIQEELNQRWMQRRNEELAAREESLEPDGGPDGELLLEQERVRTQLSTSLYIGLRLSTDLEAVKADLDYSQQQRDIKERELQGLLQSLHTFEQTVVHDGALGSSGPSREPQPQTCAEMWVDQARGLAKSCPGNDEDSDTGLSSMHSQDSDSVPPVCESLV

T2: ZO-2 (endogenous, EpH4 cells) (mouse (endogenous in EpH4)) (UniProt Q9Z0U1)
T2 sequence: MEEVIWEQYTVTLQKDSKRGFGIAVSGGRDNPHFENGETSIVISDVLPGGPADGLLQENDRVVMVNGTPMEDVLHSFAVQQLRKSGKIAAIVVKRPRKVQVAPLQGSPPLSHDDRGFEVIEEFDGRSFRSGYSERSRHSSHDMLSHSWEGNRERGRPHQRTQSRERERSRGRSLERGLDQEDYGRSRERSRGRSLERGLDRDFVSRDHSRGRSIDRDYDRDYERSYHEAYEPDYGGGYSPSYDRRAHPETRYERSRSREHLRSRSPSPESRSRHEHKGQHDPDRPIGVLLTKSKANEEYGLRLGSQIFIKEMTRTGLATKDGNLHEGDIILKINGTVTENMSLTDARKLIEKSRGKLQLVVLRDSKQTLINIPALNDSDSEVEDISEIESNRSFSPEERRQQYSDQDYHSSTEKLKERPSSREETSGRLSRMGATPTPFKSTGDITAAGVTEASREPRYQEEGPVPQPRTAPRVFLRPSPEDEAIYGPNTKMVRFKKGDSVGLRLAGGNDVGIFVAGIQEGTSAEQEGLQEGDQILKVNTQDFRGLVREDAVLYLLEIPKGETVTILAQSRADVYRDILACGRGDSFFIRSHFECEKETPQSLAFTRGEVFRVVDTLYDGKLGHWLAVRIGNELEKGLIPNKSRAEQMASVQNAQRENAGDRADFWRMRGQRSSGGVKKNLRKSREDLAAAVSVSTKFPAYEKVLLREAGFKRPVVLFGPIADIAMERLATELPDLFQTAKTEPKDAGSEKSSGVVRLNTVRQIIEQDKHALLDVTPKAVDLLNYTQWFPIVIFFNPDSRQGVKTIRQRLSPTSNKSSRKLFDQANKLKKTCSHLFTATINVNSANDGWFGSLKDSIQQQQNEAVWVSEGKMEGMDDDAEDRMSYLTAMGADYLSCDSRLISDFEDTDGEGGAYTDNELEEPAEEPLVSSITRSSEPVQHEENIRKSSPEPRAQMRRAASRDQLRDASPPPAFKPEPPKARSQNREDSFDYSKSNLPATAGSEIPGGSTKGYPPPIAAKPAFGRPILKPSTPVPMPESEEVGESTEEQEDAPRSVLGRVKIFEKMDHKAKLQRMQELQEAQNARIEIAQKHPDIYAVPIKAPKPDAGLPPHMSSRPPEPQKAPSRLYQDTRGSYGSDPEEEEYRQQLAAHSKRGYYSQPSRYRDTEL


How the values were obtained:
[1] = biological target: T1, FLAG-tagged RASSF10 stably expressed in EpH4 cells; test: co-IP; precipitation of FLAG-RASSF10 stably expressed to a low level in EpH4 cells; endogenous partners detected by blot
[2] = biological target: ZO-1 (endogenous, EpH4 cells) (mouse (endogenous in EpH4)) (UniProt P39447); test: co-IP; immunoprecipitation of endogenous proteins from epithelial cells with specific or isotype control antibodies overnight, Protein G-Sepharose; 20 mM HEPES-NaOH pH 7.4, 100 mM NaCl, 5 mM EDTA, 10% glycerol, 1% Triton X-100
[3] = biological target: T2, ZO-2 (endogenous, EpH4 cells) (mouse (endogenous in EpH4)); test: as above
[4] = biological target: afadin (endogenous, EpH4 cells) (mouse (endogenous in EpH4)) (UniProt Q9QZQ1); test: as above

binding [1] | binding [2] | binding [3] | binding [4] | Molecule
binds | binds | binds | binds | MAGI-1 (endogenous, EpH4 cells) (from UniProt Q6RHR9 1-1471)
binds |  |  |  | ASPP2 (endogenous, EpH4 cells) (protein, UniProt Q8CG79 1-1128) MMPMFLTVYLSNSEQHFTEVPVTPETICRDVVDLCKEPGENDCHLAEVWCGSERPVADNERMFDVLQRFGSQRNEVRFFLRHERPPNRDIVSGPRSQDPSVKRNGVKVPGEHRRKENGVNSPRLDLTLAELQEMASRQQQQIEAQQQMLATKEQRLKFLKQQDQRQQQQAAEQEKLKRLREIAESQEAKLKKVRALKGHVEQKRLSNGKLVEEIEQMNSLFQQKQRELVLAVSKVEELTRQLEMLKNGRIDGHHDNQSAVAELDRLYKELQLRNKLNQEQNAKLQQQRECLNKRNSEVAVMDKRVSELRDRLWKKKAALQQKENLPVSPDGNLPQQAVSAPSRVAAVGPYIQSSTMPRMPSRPELLVKPALPDGSLLMQSAEGPMKIQTLPNMRSGAASQSKGSKAHPASPDWNPSNADLLPSQGSSVPQSAGTALDQVDDGEIAVREKEKKVRPFSMFDTVDQCAAPPSFGTLRKNQSSEDILRDAQAVNKNVAKVPPPVPTKPKQIHLPYFGQTAQSPSDMKPDGNAQQLPIAATSVGAKLKPAGPQARMLLSPGAPSGGQDQVLSPASKQESPPAAAVRPFTPQPSKDTFPPAFRKPQTVAASSIYSMYTQQQAPGKNFQQAVQSALTKTQPRGPHFSSVYGKPVIAAAQNPQQHPENIYSCSQGKPGSPEPETETVSSVHESHENERIPRPLSPTKLLPFLSNPYRNQSDADLEALRKKLSNAPRPLKKRSSITEPEGPNGPNIQKLLYQRTTIAAMETISVPSHPSKSPGSVTVNPESSVEIPNPYLHVEPEKEVGSLVPEPLSPEDMGSASTENSDVPAPSAGLEYVSEGVTDSSTNLQNNVEETNPEAPHLLEVYLEEYPPYPPPPYPSGEPEVSEEDSARMRPPEITGQVSLPPGKRTNLRKTGSERIAHGMRVKFNPLALLLDSSLEGEFDLVQRIIYEVDDPSLPNDEGITALHNAVCAGHTEIVKFLVQFGVNVNAADSDGWTPLHCAASCNNVQVCKFLVESGAAVFAMTYSDMQTAADKCEEMEEGYTQCSQFLYGVQEKMGIMNKGVIYALWDYEPQHDDELLMKEGDCMTVIRREDEEEIEWWWARLNDKEGYVPRNLLGLYPRIKPRQRSLA
binds | binds | binds | binds | MAGI-3 (endogenous, EpH4 cells) (protein, UniProt Q9EQJ9 1-1476) MSKTLKKKKHWLSKVQECAVSWAGPPGDLGAEIRGGAERGEFPYLGRLRDEAGGGGGTCCVVSGKAPSPGDVLLEVNGTPVSGLTNRDTLAVIRHFREPIRLKTVKPGKVINKDLRHYLSLQFQKGSIDHKLQQVIRDNLYLRTIPCTTRAPRDGEVPGVDYNFISVEQFKALEESGALLESGTYDGNFYGTPKPPAEPSPFQPDPVDQVLFDNEFDTESQRKRTTSVSKMERMDSSLPEEEEDEDKEAVNGSGSMETREMHSETSDCWMKTVPSYNQTNSSMDFRNYMMRDENLEPLPKNWEMAYTDTGMIYFIDHNTKTTTWLDPRLCKKAKAPEDCEDGELPYGWEKIEDPQYGTYYVDHLNQKTQFENPVEEAKRKKQLGQAEIHSAKTDVERAHFTRDPSQLKGVLVRASLKKSTMGFGFTIIGGDRPDEFLQVKNVLKDGPAAQDGKIAPGDVIVDINGNCVLGHTHADVVQMFQLVPVNQYVNLTLCRGYPLPDDSEDPVVDIVAATPVINGQSLTKGETCMNTQDFKLGAMVLDQNGKSGQILASDRLNGPSESSEQRASLASSGSSQPELVTIPLIKGPKGFGFAIADSPTGQKVKMILDSQWCQGLQKGDIIKEIYHQNVQNLTHLQVVEVLKQFPVGADVPLLILRGGPCSPTKTAKTKTDTKENSGSLETINEPIPQPMPFPPSIIRSGSPKLDPSEVYLKSKTLYEDKPPNTKDLDVFLRKQESGFGFRVLGGDGPDQSIYIGAIIPLGAAEKDGRLRAADELMCIDGIPVKGKSHKQVLDLMTTAARNGHVLLTVRRKIFYGEKQPEDESHQAFSQNGSPRLNRAELPTRSAPQEAYDVTLQRKENEGFGFVILTSKSKPPPGVIPHKIGRVIDGSPADRCGGLKVGDHISAVNGQSIVDLSHDNIVQLIKDAGVTVTLTVVAEEEHHGPPSGTNSARQSPALQHRPMGQAQANHIPGDRIALEGEIGRDVCSSYRHSWSDHKHLAQPDTAVISVVGSRHNQSLGCYPVELERGPRGFGFSLRGGKEYNMGLFILRLAEDGPAIKDGRIHVGDQIVEINGEPTQGITHTRAIELIQAGGNKVLLLLRPGTGLIPDHGDWDTNSPSSSNVIYDEQPPPLPSSHSASTFEESHVPATEDSLTRVQICEKAEELKDTVQEKKSTLNGSQPEMKYQSVHKTMSKKDPPRGSGHGEKSRLKGENGVTRRGRSASPKKSVNRHSEEHLEKIPRPLKSDPKEKSRDRSLSPRKGESKGRLTIKAGSGQDPYRKDRGRSSSPKKQQKIGGNSLSNTEGKLSEAGSRRAAGHPRDSTEQLPDGREKSGVSRKDLKQSQPGKTRTKSPEKKSSKVDETSLPSKKTSSTAGRVVSEKEKGKKPTAGETSRETVEHTQISAKQLKQEAQEKTALGNADDHKGRESEVTDRCRERAGCTPQSSSLVKKAPITPGPWRVPRANKVTGTTGMADKQL
